System: not listed separately
Experiment: physchem
Settings: buffer, pH 7.5

SMILES	solubility
CS(=O)(=O)Nc1ccc2c(c1)S(=O)(=O)N=C(C1=C(O)[C@H]3[C@@H]4CC[C@@H](C4)[C@H]3N(Cc3ccc(F)cc3)C1=O)N2	> 100 µM
CS(=O)(=O)Nc1ccc2c(c1)S(=O)(=O)N=C(C1=C(O)[C@@H]3[C@H]4CC[C@H](C4)[C@@H]3N(Cc3ccc(F)cc3)C1=O)N2 [SETROBUVIR]	> 100 µM
CS(=O)(=O)Nc1ccc2c(c1)S(=O)(=O)N=C(C1=C(O)C3C4CCC(C4)C3N(Cc3ccc(F)cc3)C1=O)N2 (racemic; 2a)	> 100 µM
Cc1cc(CN2C(=O)C(C3=NS(=O)(=O)c4cc(NS(C)(=O)=O)ccc4N3)=C(O)[C@@H]3[C@H]4CC[C@H](C4)[C@@H]32)ccc1F	> 100 µM
CS(=O)(=O)Nc1ccc2c(c1)S(=O)(=O)N=C(C1=C(O)[C@H]3[C@H]4CC[C@H](C4)[C@H]3N(Cc3ccc(F)cc3)C1=O)N2	> 100 µM

System: Liver microsomes
Experiment: not given
Settings: human, 1 µM

SMILES	t1/2
CS(=O)(=O)Nc1ccc2c(c1)S(=O)(=O)N=C(C1=C(O)C3C4CCC(C4)C3N(Cc3ccc(F)cc3)C1=O)N2 (racemic; 2b)	> 1 h

Source: ChEMBL document CHEMBL1154345, “Discovery of tricyclic 5,6-dihydro-1H-pyridin-2-ones as novel, potent, and orally bioavailable inhibitors of HCV NS5B polymerase” (Bioorg Med Chem Lett, 2009)
